From patent publication US20240252534A1
These are yes or no findings as the source states them, for the method shown. Some results given as binding are weak or reduced against the parent protein; the word gives no strength. Sequences can lack the tags named with a protein.

Biological target: Rhesus PSMA (Rhesus)
Test: IHC staining

B1: NGS2 dAb in murine IgG2A-Fc format (Fc fusion, not shown: a dimerising Fc or GST)
chain: QVQLQESGGGWVQAGGSLRLSCAASGRTSRTYTMGWFRQAPGKDGVFVAGITWSTWSSDKTQYLDSVNSRFTISRDNARNTVYLQMNNLKPEDTAVYYCAATPRYYGVAVPTTRGPYDYWGQGTQVTVSS
binding: binds
